For one compound, retention latency results are on record in patent US5556847A, “Methods of effecting memory enhancement mediated by steroid sulfatase inhibitors” (Duquesne University of the Holy Ghost, priority 1994, dated 1996).

In this assay the test system is scopolamine-induced amnesia. In words: passive avoidance paradigm, reversal of scopolamine-induced amnesia (crossover latency). In kind it is in vivo, rats. Particulars: saline one hour before and scopolamine 1 mg/Kg IP 30 minutes before acquisition trial; latency 24 hours later (no scopolamine: 583.8±16.2 sec). As to the method:
Male rats weighing between 80 and 100 grams were purchased from Hilltop Lab Animals Inc. (Scottdale, Pa.) and housed in hanging wire mesh cages in groups of three with water and rat chow available ad libitum. The room in which the animals were housed was controlled for both temperature and humidity, there was a standard 12 hour, light/dark cycle. To assess memory, the Gemini Avoidance System (San Diego Instruments) was utilized in a standard passive avoidance paradigm. Briefly, the avoidance apparatus consisted of a box (53×53×32 cm) with two compartments connected by an opening with a sliding door. The room in which the rat was placed was brightly lit, while the other room was dark. Initially, the animals were allowed to explore the apparatus and were then removed. During the memory acquisition trial, animals were placed in the light compartment. […] Twenty-four hours later the rat was again placed in the light side of the apparatus and the time latency to crossing to the dark room recorded. […] The acquisition of memory for the foot shock was assessed as an increased latency period before entering the dark room on the second day. Significant differences in crossover latency were determined by statistical analysis utilizing one-way analysis of a variance with a Dunnett's test post hoc. […]

Consider `CN1[C@@H]2C[C@@H](OC(=O)[C@H](CO)c3ccccc3)C[C@H]1[C@@H]1O[C@@H]12` [scopolamine, reference compound], for which the retention latency worked out at 21.1 ± 10.9 s.
